For 13 compounds, T/C results are on record in PubChem BioAssay AID248 (DTP/NCI, 2004).

The test deals with L1210 leukemia ip in BDF1 mice, survival T/C. In words: NCI In Vivo Anticancer Drug Screen. Data for tumor model L1210 Leukemia (intraperitoneal) in B6D2F1 (BDF1) mice. The following applies: higher T/C = longer survival.
[1] abbreviates: T/C endpoint: mean survival time, dose: 50.0 mg/kg/injection, schedule: Q01DX001 (ip), vehicle: saline.
Where [2] appears, read: T/C endpoint: mean survival time, dose: 12.5 mg/kg/injection, schedule: Q04DX003 (ip), vehicle: saline.
The mark [3] stands for this setting: T/C endpoint: mean survival time, dose: 25.0 mg/kg/injection, schedule: Q04DX003 (ip), vehicle: saline.
Setting [4] is: T/C endpoint: mean survival time, dose: 50.0 mg/kg/injection, schedule: Q04DX003 (ip), vehicle: saline.

The list does not hold the whole screen: its compounds were picked by chemical class. Not every dose and run of a compound is shown. T/C gives the treated animals as a percentage of the vehicle group. For survival time, the PubChem record calls one and a half times the control and up active, and a quarter to a half above the control has no call in these data; cut-offs in other NCI protocols can differ. Some entries show no survivor count and are marked so; the dose need not have been tolerated. Schedule codes are those of the source, taken here to give the interval after Q, in days (D) or hours (H), and the number of doses after X. Some entries hold several experiments; the results are listed from low to high. Some schedule codes hold Z or #, which are not explained here.

In the case of `CC(=O)c1ccc(N2CCC(OC(=O)C(O)(c3ccccc3)c3ccccc3)CC2)cc1`, the T/C is 98 % of control [survivor count not shown] (T/C endpoint: mean survival time, dose: 100.0 mg/kg/injection, schedule: Q04DX003 (ip), vehicle: Klucel (hydroxypropylcellulose) (HPC)); 101 % of control [survivor count not shown] (T/C endpoint: mean survival time, dose: 200.0 mg/kg/injection, schedule: Q04DX003 (ip), vehicle: Klucel (hydroxypropylcellulose) (HPC)); 101 % of control [survivor count not shown] (T/C endpoint: mean survival time, dose: 400.0 mg/kg/injection, schedule: Q04DX003 (ip), vehicle: Klucel (hydroxypropylcellulose) (HPC)).
Regarding `NS(=O)(=O)c1ccc(N(CCBr)CCBr)cc1`, the T/C (T/C endpoint: mean survival time, dose: 101.5 mg/kg/injection, schedule: Q01DX005 (ip), vehicle: carboxymethylcellulose (CMC)) was 121 % of control [survivor count not shown] and the T/C (T/C endpoint: mean survival time, dose: 203.0 mg/kg/injection, schedule: Q01DX005 (ip), vehicle: carboxymethylcellulose (CMC)) was 129 % of control [survivor count not shown].
For the compound `ClCC[N+]1(CCCl)CCCCC1`, the T/C is, setting by setting: (T/C endpoint: mean survival time, dose: 12.5 mg/kg/injection, schedule: Q01DX001 (ip), vehicle: saline) 111 % of control [survivor count not shown]; (T/C endpoint: mean survival time, dose: 25.0 mg/kg/injection, schedule: Q01DX001 (ip), vehicle: saline) 100 % of control [survivor count not shown]; under setting [1], 97 % of control [survivor count not shown].
Consider `O=C(O)C1CCC(N(CCCl)CCCl)CC1` (configuration not stated), for which the T/C is 128 % of control [survivor count not shown] (T/C endpoint: mean survival time, dose: 3.0 mg/kg/injection, schedule: Q01DX001 (ip), vehicle: saline); 150 % of control [survivor count not shown] (T/C endpoint: mean survival time, dose: 4.4 mg/kg/injection, schedule: Q01DX001 (ip), vehicle: saline); 136 % of control [survivor count not shown] (T/C endpoint: mean survival time, dose: 6.7 mg/kg/injection, schedule: Q01DX001 (ip), vehicle: saline).
In the case of `CN(C)P(=O)(Cl)N(C)C`, the T/C is 106 % of control [survivor count not shown] under setting [2], 107 % of control [survivor count not shown] under setting [3] and 96 % of control [survivor count not shown] under setting [4].
Consider `O=P(Cl)(Cl)CCCBr`, for which the T/C runs as follows: (T/C endpoint: mean survival time, dose: 9.37 mg/kg/injection, schedule: Q01DX009 (ip), vehicle: saline) 95 % of control [survivor count not shown]; (T/C endpoint: mean survival time, dose: 18.75 mg/kg/injection, schedule: Q01DX009 (ip), vehicle: saline) 101 % of control [survivor count not shown]; (T/C endpoint: mean survival time, dose: 18.75 mg/kg/injection, schedule: Q04DX003 (ip), vehicle: acetone) 90 % of control [survivor count not shown]; (T/C endpoint: mean survival time, dose: 37.5 mg/kg/injection, schedule: Q01DX009 (ip), vehicle: saline) 90 % of control [survivor count not shown]; (T/C endpoint: mean survival time, dose: 37.5 mg/kg/injection, schedule: Q04DX003 (ip), vehicle: acetone) 91 % of control [survivor count not shown]; (T/C endpoint: mean survival time, dose: 75.0 mg/kg/injection, schedule: Q01DX001 (ip), vehicle: acetone) 94 % of control [survivor count not shown]. In addition, the T/C (T/C endpoint: mean survival time, dose: 75.0 mg/kg/injection, schedule: Q04DX003 (ip), vehicle: acetone) was 88 % of control [survivor count not shown].
For `CC1(C)NC(=O)N(CCN(CCCl)CCCl)C1=O`, the T/C is 109 % of control [survivor count not shown] (T/C endpoint: mean survival time, dose: 1.8 mg/kg/injection, schedule: Q01DX009 (ip), vehicle: saline); 120 % of control [survivor count not shown] (T/C endpoint: mean survival time, dose: 2.7 mg/kg/injection, schedule: Q01DX009 (ip), vehicle: saline); 123 % of control [survivor count not shown] (T/C endpoint: mean survival time, dose: 3.12 mg/kg/injection, schedule: Q04DX003 (ip), vehicle: Klucel (hydroxypropylcellulose) (HPC)); 107 [survivor count not shown] and 137 % of control [survivor count not shown] (T/C endpoint: mean survival time, dose: 4.1 mg/kg/injection, schedule: Q04DX003 (ip), vehicle: Klucel (hydroxypropylcellulose) (HPC)); 109 [survivor count not shown], 132 [survivor count not shown], 138 % of control [survivor count not shown] (T/C endpoint: mean survival time, dose: 6.25 mg/kg/injection, schedule: Q04DX003 (ip), vehicle: Klucel (hydroxypropylcellulose) (HPC)); 109 [survivor count not shown] and 132 % of control [survivor count not shown] (T/C endpoint: mean survival time, dose: 9.3 mg/kg/injection, schedule: Q04DX003 (ip), vehicle: Klucel (hydroxypropylcellulose) (HPC)). The T/C (T/C endpoint: mean survival time, dose: 12.5 mg/kg/injection, schedule: Q04DX003 (ip), vehicle: Klucel (hydroxypropylcellulose) (HPC)) was 104 % of control [survivor count not shown].
Regarding `O/N=C/c1ccc(N(CCCl)CCCl)cc1`, the T/C runs as follows: (T/C endpoint: median survival time, dose: 100.0 mg/kg/injection, schedule: Q01DX009 (ip), vehicle: Klucel (hydroxypropylcellulose) (HPC)) 100 % of control [survivor count not shown]; (T/C endpoint: median survival time, dose: 200.0 mg/kg/injection, schedule: Q01DX009 (ip), vehicle: Klucel (hydroxypropylcellulose) (HPC)) 116 % of control [survivor count not shown]; (T/C endpoint: median survival time, dose: 400.0 mg/kg/injection, schedule: Q01DX009 (ip), vehicle: Klucel (hydroxypropylcellulose) (HPC)) 110 % of control [survivor count not shown].
For `ClCCN(CCCl)Cc1nc2cc(Cl)c(Cl)cc2[nH]1`, the T/C by setting is: (T/C endpoint: mean survival time, dose: 49.0 mg/kg/injection, schedule: Q01DX Z (ip), vehicle: carboxymethylcellulose (CMC)) 103 % of control [survivor count not shown]; under setting [1], 102 % of control [survivor count not shown]; (T/C endpoint: mean survival time, dose: 73.0 mg/kg/injection, schedule: Q01DX Z (ip), vehicle: carboxymethylcellulose (CMC)) 100 % of control [survivor count not shown]; (T/C endpoint: mean survival time, dose: 100.0 mg/kg/injection, schedule: Q01DX001 (ip), vehicle: saline) 107 % of control [survivor count not shown]; (T/C endpoint: mean survival time, dose: 200.0 mg/kg/injection, schedule: Q01DX001 (ip), vehicle: saline) 116 % of control [survivor count not shown].
Regarding `COc1cc(CN(CCCl)CCBr)cc(OC)c1`, the T/C is 113 % of control [survivor count not shown] (T/C endpoint: mean survival time, dose: 3.12 mg/kg/injection, schedule: Q01DX009 (ip), vehicle: Klucel (hydroxypropylcellulose) (HPC)) and 97 % of control [survivor count not shown] (T/C endpoint: mean survival time, dose: 6.25 mg/kg/injection, schedule: Q01DX009 (ip), vehicle: Klucel (hydroxypropylcellulose) (HPC)).
Turning to `CCCCOc1ccc(N(CCCl)CCCl)cc1`, the T/C by setting is: (T/C endpoint: mean survival time, dose: 25.0 mg/kg/injection, schedule: Q01DX Z (ip), vehicle: carboxymethylcellulose (CMC)) 104 % of control [survivor count not shown]; (T/C endpoint: mean survival time, dose: 38.0 mg/kg/injection, schedule: Q01DX Z (ip), vehicle: carboxymethylcellulose (CMC)) 121 % of control [survivor count not shown]; (T/C endpoint: mean survival time, dose: 56.0 mg/kg/injection, schedule: Q01DX Z (ip), vehicle: carboxymethylcellulose (CMC)) 109 % of control [survivor count not shown]; (T/C endpoint: mean survival time, dose: 56.0 mg/kg/injection, schedule: Q01DX Z (ip), vehicle: methylcellulose (MC)) 131 % of control [survivor count not shown]; (T/C endpoint: mean survival time, dose: 100.0 mg/kg/injection, schedule: Q01DX Z (ip), vehicle: carboxymethylcellulose (CMC)) 96 % of control [survivor count not shown]; (T/C endpoint: mean survival time, dose: 175.0 mg/kg/injection, schedule: Q01DX Z (ip), vehicle: carboxymethylcellulose (CMC)) 106 % of control [survivor count not shown]. The T/C (T/C endpoint: mean survival time, dose: 250.0 mg/kg/injection, schedule: Q01DX Z (ip), vehicle: carboxymethylcellulose (CMC)) is 102 % of control [survivor count not shown].
As to `O=C(c1ccccc1)N(CCCl)CCCl`, the T/C reads like this: (T/C endpoint: mean survival time, dose: 100.0 mg/kg/injection, schedule: Q01DX009 (ip), vehicle: saline) 104 % of control [survivor count not shown]; (T/C endpoint: mean survival time, dose: 200.0 mg/kg/injection, schedule: Q01DX009 (ip), vehicle: saline) 112 % of control [survivor count not shown].
Regarding `O=[N+]([O-])c1ccc(O)c(CN(CCCl)CCCl)c1`, the T/C runs as follows: under setting [2], 105 % of control [survivor count not shown]; under setting [3], 107 % of control [survivor count not shown]; under setting [4], 96 % of control [survivor count not shown]; (T/C endpoint: mean survival time, dose: 100.0 mg/kg/injection, schedule: Q04DX003 (ip), vehicle: saline) 87 [survivor count not shown] and 107 % of control [survivor count not shown]; (T/C endpoint: mean survival time, dose: 200.0 mg/kg/injection, schedule: Q04DX003 (ip), vehicle: saline) 97 % of control [survivor count not shown].
